The record followed here is publication doi:10.1101/2021.07.09.451853.

Results are given in words; binding and its absence hold for the method and conditions named. Binding seen in cells or lysates may run through a third protein. Some entries that bind do so weakly or less than the wild type. Sequences can lack the tags named with a protein.

The target of the assay is T1, 14-3-3 OMEGA:YFP (35S:OMEGA:YFP) (A. thaliana) (UniProt Q01525).
T1 sequence: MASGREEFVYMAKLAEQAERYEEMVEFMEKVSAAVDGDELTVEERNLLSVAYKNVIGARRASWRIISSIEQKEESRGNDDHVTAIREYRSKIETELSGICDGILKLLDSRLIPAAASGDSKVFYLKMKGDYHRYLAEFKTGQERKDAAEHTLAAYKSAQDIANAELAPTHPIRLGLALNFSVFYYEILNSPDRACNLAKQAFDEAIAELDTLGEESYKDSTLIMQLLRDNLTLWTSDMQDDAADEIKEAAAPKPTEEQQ
Briefly: co-IP.

B1: 14-3-3 KAPPA:HA (35S:KAPPA:HA) (protein, UniProt P48348 1-248)
chain: MATTLSRDQYVYMAKLAEQAERYEEMVQFMEQLVSGATPAGELTVEERNLLSVAYKNVIGSLRAAWRIVSSIEQKEESRKNEEHVSLVKDYRSKVETELSSICSGILRLLDSHLIPSATASESKVFYLKMKGDYHRYLAEFKSGDERKTAAEDTMIAYKAAQDVAVADLAPTHPIRLGLALNFSVFYYEILNSSEKACSMAKQAFEEAIAELDTLGEESYKDSTLIMQLLRDNLTLWTSDMQEQMDEA
Turning to B1, the binding entry is recorded as “binds”.
